Experimental data from US20080154102A1, “Intraoperative imaging methods” (priority 2006, published 2008).
For at least one compound, name, drawing or mass did not settle the structure.

What was measured:
[1] = Excretion to bile / clearance after injection; format: in vivo; details: Table 2
Excretion to urine = format: in vivo; details: Table 2

Question: What does the source list for `CC1(C)C(/C=C/C2=C(Oc3ccc(S(=O)(=O)O)cc3)C(=C/C=C3/N(CCCCS(=O)(=O)O)c4ccc(S(=O)(=O)[O-])cc4C3(C)C)/CCC2)=[N+](CCCCCC(=O)O)c2ccc(S(=O)(=O)O)cc21` [CW800-CA]?
Answer: Excretion to Bile (+/−) [1]: +; Excretion to Urine (+/−) (Excretion to urine): +
